From paper PMC8654949
No constants are given. Whether binding was seen depends on the method and setting. In cells and extracts the contact can be indirect. Some entries that bind do so weakly or less than the wild type. For some assays here: Sequences can lack the tags named with a protein.

The chains behind the UniProt entries cited, without tags or fusion partners.
UniProt A6NHR9: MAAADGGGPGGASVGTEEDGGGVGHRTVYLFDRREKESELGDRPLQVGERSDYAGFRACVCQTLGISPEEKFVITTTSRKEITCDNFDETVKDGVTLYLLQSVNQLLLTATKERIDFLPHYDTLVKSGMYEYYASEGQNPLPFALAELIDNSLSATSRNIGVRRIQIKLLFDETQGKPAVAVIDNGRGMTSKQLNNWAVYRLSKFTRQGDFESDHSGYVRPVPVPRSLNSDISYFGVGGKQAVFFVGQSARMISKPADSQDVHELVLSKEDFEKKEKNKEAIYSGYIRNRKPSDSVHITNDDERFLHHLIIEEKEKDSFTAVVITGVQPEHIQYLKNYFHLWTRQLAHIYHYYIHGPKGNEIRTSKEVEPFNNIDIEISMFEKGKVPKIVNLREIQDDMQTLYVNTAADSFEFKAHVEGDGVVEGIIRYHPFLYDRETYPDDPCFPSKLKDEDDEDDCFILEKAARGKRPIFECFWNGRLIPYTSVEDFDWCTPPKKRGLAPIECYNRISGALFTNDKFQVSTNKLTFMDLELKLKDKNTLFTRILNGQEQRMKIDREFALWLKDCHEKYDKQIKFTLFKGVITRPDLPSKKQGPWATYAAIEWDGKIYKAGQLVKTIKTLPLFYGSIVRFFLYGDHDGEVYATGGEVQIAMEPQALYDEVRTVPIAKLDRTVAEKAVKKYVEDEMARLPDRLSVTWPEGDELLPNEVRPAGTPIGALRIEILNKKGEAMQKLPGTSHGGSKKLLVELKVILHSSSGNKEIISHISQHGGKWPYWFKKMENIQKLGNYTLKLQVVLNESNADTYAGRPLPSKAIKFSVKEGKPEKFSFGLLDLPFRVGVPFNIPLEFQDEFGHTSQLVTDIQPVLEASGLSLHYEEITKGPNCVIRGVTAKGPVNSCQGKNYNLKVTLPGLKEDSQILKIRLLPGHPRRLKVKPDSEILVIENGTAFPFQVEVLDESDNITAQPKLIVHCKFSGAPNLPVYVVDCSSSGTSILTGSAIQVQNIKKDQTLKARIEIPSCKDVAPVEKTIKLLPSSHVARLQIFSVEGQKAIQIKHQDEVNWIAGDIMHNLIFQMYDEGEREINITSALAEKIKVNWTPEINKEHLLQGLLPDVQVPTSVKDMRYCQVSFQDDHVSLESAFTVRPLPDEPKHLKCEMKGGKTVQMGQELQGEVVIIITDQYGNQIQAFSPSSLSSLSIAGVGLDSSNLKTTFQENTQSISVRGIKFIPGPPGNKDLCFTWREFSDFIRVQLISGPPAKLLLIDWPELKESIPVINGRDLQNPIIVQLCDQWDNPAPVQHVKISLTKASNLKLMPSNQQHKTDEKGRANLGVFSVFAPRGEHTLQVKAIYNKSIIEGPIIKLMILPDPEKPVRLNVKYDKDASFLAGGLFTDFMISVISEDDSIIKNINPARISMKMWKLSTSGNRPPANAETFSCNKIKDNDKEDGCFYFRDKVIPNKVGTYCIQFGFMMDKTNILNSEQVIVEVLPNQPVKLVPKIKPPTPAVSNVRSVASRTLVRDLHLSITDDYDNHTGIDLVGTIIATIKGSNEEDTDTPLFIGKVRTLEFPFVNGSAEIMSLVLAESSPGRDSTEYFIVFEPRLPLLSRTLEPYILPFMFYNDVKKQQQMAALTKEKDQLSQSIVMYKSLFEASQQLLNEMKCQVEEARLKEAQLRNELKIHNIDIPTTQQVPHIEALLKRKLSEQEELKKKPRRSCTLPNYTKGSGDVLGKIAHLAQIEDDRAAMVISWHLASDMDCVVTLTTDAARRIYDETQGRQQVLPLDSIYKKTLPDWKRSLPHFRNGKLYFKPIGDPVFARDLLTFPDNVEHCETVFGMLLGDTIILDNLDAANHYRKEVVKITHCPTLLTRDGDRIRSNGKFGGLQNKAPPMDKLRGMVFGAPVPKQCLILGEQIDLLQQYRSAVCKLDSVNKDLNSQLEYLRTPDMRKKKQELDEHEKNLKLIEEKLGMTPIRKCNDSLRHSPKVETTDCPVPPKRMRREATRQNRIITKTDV
UniProt Q9Y265: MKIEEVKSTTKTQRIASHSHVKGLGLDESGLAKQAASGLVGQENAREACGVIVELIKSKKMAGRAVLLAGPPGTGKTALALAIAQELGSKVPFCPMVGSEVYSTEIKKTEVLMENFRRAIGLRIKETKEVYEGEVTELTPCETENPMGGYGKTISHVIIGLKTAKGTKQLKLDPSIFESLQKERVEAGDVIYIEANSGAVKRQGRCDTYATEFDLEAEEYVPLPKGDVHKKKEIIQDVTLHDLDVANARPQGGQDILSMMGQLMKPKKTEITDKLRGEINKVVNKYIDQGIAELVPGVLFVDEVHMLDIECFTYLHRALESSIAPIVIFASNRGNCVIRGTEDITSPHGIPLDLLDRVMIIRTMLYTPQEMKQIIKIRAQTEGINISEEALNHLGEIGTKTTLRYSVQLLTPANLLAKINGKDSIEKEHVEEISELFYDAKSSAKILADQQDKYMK

What was measured:
[1] = target: T1, HA-EZHIP (EZH Inhibitory Protein, CXorf67) (human) (UniProt Q86X51); experiment: co-IP; overexpressed constructs in transfected HEK293T, U2OS or HeLa cells; NP40 lysis buffer (50 mM Tris-HCl pH 8.0, 150 mM NaCl, 1% Igepal CA-630); HA-beads, Flag M2 affinity gel or GFP-Trap agarose, 2 h at 4 °C; western blot; Benzonase at first, omitted later as it did not affect …
T1 sequence: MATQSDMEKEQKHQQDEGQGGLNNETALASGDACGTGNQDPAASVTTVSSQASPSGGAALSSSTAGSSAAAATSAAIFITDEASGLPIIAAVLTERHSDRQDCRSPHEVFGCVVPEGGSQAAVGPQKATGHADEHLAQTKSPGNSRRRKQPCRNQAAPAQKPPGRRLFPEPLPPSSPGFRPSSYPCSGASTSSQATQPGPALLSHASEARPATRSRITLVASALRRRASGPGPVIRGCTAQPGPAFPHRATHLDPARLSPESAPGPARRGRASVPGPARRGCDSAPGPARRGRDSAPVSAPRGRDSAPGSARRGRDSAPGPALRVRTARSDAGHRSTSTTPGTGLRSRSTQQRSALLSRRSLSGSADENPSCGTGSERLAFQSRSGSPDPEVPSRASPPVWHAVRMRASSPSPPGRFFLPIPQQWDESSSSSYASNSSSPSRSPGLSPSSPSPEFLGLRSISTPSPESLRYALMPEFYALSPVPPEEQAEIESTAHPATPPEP

[2] = target: GFP-SMCHD1 (GFP-tagged Structural Maintenance of Chromosomes Hinge Domain Containing 1) (human) (UniProt A6NHR9); experiment: co-IP; GFP-pulldown of GFP-SMCHD1 from stable GFP-SMCHD1 U2OS cells; western blot for the endogenous partner
[3] = target: 3xHA-SMCHD1 (human) (UniProt A6NHR9); experiment: co-IP; overexpressed constructs in transfected HEK293T, U2OS or HeLa cells; NP40 lysis buffer (50 mM Tris-HCl pH 8.0, 150 mM NaCl, 1% Igepal CA-630); HA-beads, Flag M2 affinity gel or GFP-Trap agarose, 2 h at 4 °C; western blot; Benzonase at first, omitted later as it did not affect …
[4] = target: GFP-SMCHD1 (GFP-tagged Structural Maintenance of Chromosomes Hinge Domain Containing 1) (human) (UniProt A6NHR9); experiment: as above
[5] = target: RuvB Like AAA ATPase 1 (RUVBL1), endogenous (human (endogenous in HEK293T, U2OS, HeLa, myoblasts)) (UniProt Q9Y265); experiment: co-IP; endogenous proteins; antibody (1 µg) conjugated to Dynabeads protein A and protein G (3:1); lysates of HEK293T, U2OS, HeLa cells or control myoblasts; western blot
[6] = target: T2, endogenous EZHIP (HEK293T and HeLa cells) (human (endogenous in HEK293T, HeLa)) (UniProt Q86X51); experiment: as above
T2 sequence: T1 sequence

[7] = target: 3xFLAG-SMCHD1 (human) (UniProt A6NHR9); experiment: co-IP; overexpressed constructs in transfected HEK293T, U2OS or HeLa cells; NP40 lysis buffer (50 mM Tris-HCl pH 8.0, 150 mM NaCl, 1% Igepal CA-630); HA-beads, Flag M2 affinity gel or GFP-Trap agarose, 2 h at 4 °C; western blot; Benzonase at first, omitted later as it did not affect …
[8] = target: GFP-SMCHD1 (GFP-tagged Structural Maintenance of Chromosomes Hinge Domain Containing 1) (human) (UniProt A6NHR9); experiment: as above; remark: listed apart in the source

3xFLAG-SMCHD1 (from UniProt A6NHR9 1-2005)
binding [1]: binds

RuvB Like AAA ATPase 1 (RUVBL1), endogenous (from UniProt Q9Y265 1-456)
binding [2]: binds
binding [3]: binds
binding [4]: binds

endogenous SMCHD1 (from UniProt A6NHR9 1-2005)
binding [5]: binds
binding [6]: binds

B1: HA-EZHIP (EZH Inhibitory Protein, CXorf67) (protein, UniProt Q86X51 1-503)
chain: T1 sequence
binding [7]: binds

B2: RAD21 (cohesin complex component) (protein, UniProt O60216 1-631)
chain: MFYAHFVLSKRGPLAKIWLAAHWDKKLTKAHVFECNLESSVESIISPKVKMALRTSGHLLLGVVRIYHRKAKYLLADCNEAFIKIKMAFRPGVVDLPEENREAAYNAITLPEEFHDFDQPLPDLDDIDVAQQFSLNQSRVEEITMREEVGNISILQENDFGDFGMDDREIMREGSAFEDDDMLVSTTTSNLLLESEQSTSNLNEKINHLEYEDQYKDDNFGEGNDGGILDDKLISNNDGGIFDDPPALSEAGVMLPEQPAHDDMDEDDNVSMGGPDSPDSVDPVEPMPTMTDQTTLVPNEEEAFALEPIDITVKETKAKRKRKLIVDSVKELDSKTIRAQLSDYSDIVTTLDLAPPTKKLMMWKETGGVEKLFSLPAQPLWNNRLLKLFTRCLTPLVPEDLRKRRKGGEADNLDEFLKEFENPEVPREDQQQQHQQRDVIDEPIIEEPSRLQESVMEASRTNIDESAMPPPPPQGVKRKAGQIDPEPVMPPQQVEQMEIPPVELPPEEPPNICQLIPELELLPEKEKEKEKEKEDDEEEEDEDASGGDQDQEERRWNKRTQQMLHGLQRALAKTGAESISLLELCRNTNRKQAAAKFYSFLVLKKQQAIELTQEEPYSDIIATPGPRFHII
binding [8]: binds
